The comparison behind a weaker result is the experiment's own reference, which may not be listed here. Tags and fusion partners may be left off the protein sequences shown.

These results are taken from publication PMC7213743, “ArdC, a ssDNA-binding protein with a metalloprotease domain, overpasses the recipient hsdRMS restriction system broadening conjugation host range”.

In this data set the target is T1, ArdC (UniProt Q6I6B2).
T1 sequence (looked up): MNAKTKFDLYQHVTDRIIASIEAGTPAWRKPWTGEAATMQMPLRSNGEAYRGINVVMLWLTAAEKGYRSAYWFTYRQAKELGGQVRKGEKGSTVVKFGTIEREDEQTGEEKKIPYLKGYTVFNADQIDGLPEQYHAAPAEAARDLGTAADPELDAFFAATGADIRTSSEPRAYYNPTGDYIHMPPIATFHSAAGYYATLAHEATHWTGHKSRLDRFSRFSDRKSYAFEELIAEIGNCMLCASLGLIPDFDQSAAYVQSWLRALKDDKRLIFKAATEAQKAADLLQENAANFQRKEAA
Kind of data set: EMSA. The settings on record: 0-1 uM ArdC, 50 nM DNA, EMSA: 50 mM NaCl, 25 mM Tris-HCl pH 7.5, 0.5 mM EDTA, room temperature 30 min, 10% native PAGE in cold 1x TBE, recombinant protein, residues 22-318, label: 6FAM (5' of strand 1).

On to “TACGCTCTTGGGCGCGCTGAATATGAGGTCAAGGCCGATGCGCTC (double strand) [Fluor-T87I2 + T87I1 (45 bp duplex)]”, for which the binding result is on record as “binds more weakly”.
